The list shows a part of the results.
Tests used:
Test in all cases: log2 fold change, soluble protein after heating vs DMSO (PISA); higher = thermal stabilisation; K562 cells, 10 uM, 30 min; active = over 0.2 and 3.5 SD of the protein, either way, in both replicates (recomputed)
[1] = compound: CS(=O)(=O)c1ccc(-c2cnc(N)c(C(=O)Nc3ccccc3)n2)cc1
In short: (§1)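 Quantification of soluble protein used TMTpro 16plex LC-MS/MS, with channel sums equalised. Samples were the supernatant after 21,000xg for 90 min of pooled aliquots from K562 cells (2×10^6 cells/mL) treated with 10 μM compound for 30 min, heated for 3 min over 48°C-58°C, and extracted in PBS with 0.5% NP-40 at 4°C. Values, from duplicates, describe thermal stability against control samples on a log2 fold-change scale.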

Sequences of proteins named here, by UniProt entry; tags and fusion partners are left off. A change or cut given only in a name is not applied to a line headed by its entry.
UniProt P15954, whole entry, looked up: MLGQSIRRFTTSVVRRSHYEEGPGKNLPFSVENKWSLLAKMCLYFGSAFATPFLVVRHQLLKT
UniProt Q6QEF8, whole entry, looked up: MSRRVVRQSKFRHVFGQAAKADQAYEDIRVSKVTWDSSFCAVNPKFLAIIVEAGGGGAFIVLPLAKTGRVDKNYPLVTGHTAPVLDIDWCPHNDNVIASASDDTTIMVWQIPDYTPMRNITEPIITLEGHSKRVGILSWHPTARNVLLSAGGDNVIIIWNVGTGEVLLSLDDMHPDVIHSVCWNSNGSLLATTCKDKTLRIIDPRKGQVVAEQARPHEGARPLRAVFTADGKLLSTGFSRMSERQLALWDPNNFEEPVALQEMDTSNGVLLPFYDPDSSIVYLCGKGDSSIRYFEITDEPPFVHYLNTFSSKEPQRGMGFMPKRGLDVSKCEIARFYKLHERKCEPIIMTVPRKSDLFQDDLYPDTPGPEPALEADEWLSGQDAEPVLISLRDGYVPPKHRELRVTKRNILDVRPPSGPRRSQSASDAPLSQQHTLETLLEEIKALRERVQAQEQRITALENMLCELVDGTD
UniProt Q99627: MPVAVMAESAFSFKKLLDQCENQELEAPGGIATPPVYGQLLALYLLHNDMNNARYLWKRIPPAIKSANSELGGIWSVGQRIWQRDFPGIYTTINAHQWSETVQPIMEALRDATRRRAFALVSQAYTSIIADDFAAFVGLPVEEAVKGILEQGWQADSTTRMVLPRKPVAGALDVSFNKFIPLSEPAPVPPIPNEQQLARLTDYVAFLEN
UniProt Q9UNS2: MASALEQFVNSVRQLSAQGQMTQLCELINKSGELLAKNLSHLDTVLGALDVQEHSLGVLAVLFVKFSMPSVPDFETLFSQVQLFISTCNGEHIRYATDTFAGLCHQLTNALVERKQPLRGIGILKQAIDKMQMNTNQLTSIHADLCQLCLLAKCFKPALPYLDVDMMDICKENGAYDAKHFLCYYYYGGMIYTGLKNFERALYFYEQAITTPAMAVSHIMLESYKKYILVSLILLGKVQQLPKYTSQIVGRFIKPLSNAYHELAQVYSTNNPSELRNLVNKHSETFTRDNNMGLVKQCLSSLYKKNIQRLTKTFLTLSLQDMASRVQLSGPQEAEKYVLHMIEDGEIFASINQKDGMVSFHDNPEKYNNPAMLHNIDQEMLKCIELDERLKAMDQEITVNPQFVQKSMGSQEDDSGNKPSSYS
UniProt Q8N684: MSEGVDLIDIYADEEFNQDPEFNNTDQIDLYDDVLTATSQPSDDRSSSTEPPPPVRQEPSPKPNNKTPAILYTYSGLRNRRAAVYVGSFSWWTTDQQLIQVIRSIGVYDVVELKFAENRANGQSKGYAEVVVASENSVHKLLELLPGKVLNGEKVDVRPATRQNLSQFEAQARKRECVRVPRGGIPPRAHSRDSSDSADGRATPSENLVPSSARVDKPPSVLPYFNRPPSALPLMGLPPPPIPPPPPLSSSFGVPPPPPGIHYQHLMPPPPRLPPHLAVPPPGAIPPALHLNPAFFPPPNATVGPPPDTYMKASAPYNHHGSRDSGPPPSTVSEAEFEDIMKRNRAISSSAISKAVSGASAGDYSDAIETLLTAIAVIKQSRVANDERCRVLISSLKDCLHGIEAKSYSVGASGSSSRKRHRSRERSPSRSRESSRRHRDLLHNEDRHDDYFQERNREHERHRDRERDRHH
UniProt P52943: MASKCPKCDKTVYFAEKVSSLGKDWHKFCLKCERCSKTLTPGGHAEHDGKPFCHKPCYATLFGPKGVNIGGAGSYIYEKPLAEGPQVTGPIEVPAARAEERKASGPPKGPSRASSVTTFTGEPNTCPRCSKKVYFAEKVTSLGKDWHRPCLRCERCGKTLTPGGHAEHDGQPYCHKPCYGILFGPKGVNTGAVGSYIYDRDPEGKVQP
UniProt P14854, whole entry, looked up: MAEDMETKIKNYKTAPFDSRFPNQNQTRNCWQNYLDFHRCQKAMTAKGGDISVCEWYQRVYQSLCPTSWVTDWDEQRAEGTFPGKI
UniProt P49747: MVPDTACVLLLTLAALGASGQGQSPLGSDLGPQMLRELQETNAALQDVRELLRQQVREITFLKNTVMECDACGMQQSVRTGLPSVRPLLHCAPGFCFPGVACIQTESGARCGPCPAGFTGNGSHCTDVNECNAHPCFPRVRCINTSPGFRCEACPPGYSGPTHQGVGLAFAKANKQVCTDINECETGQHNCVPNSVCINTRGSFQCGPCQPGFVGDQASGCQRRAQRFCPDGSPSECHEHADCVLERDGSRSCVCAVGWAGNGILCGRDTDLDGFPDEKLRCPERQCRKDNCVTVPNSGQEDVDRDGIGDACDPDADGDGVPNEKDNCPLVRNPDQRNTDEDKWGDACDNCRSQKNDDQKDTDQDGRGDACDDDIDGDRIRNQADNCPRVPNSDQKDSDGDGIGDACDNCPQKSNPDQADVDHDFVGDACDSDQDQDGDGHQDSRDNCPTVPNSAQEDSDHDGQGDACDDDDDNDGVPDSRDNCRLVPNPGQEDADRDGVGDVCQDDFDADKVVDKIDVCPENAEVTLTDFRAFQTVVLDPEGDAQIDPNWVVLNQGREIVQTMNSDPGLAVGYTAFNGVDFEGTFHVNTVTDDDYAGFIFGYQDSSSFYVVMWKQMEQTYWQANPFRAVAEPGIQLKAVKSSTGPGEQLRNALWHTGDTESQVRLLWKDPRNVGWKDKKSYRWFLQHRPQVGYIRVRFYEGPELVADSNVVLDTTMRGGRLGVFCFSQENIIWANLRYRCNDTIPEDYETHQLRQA

crizotinib = compound: C[C@@H](Oc1cc(-c2cnn(C3CCNCC3)c2)cnc1N)c1c(Cl)ccc(F)c1Cl [crizotinib]
In short: as §1

[2] = compound: C[C@@H]1COCCN1C2=NC(=NC(=C2)C3(CC3)S(=O)(=O)C)C4=C5C=CNC5=CC=C4
In short: as §1

gandotinib = compound: Cc1cc(Nc2cc(CN3CCOCC3)c3nc(C)c(Cc4ccc(Cl)cc4F)n3n2)n[nH]1 [gandotinib]
In short: as §1

[3] = compound: Cc1cc(SCc2sc(-c3ccc(C(F)(F)F)cc3)nc2C)ccc1OCC(=O)O
In short: as §1

doramapimod = compound: Cc1ccc(-n2nc(C(C)(C)C)cc2NC(=O)Nc2ccc(OCCN3CCOCC3)c3ccccc23)cc1 [doramapimod]
In short: as §1

ispinesib = compound: Cc1ccc(C(=O)N(CCCN)[C@@H](c2nc3cc(Cl)ccc3c(=O)n2Cc2ccccc2)C(C)C)cc1 [ispinesib]
In short: as §1

bafetinib = compound: Cc1ccc(NC(=O)c2ccc(CN3CC[C@H](N(C)C)C3)c(C(F)(F)F)c2)cc1Nc1nccc(-c2cncnc2)n1 [bafetinib]
In short: as §1

[4] = compound: Cc1cccc(CC(=O)N2CCc3c2ccc(-c2cn(C)c4ncnc(N)c24)c3F)n1
In short: as §1

nilotinib = compound: Cc1cn(-c2cc(NC(=O)c3ccc(C)c(Nc4nccc(-c5cccnc5)n4)c3)cc(C(F)(F)F)c2)cn1 [nilotinib]
In short: as §1

[5] = compound: Cc1nc(Nc2n[nH]c3c2CN(C(=O)N[C@H](CN(C)C)c2ccccc2)C3(C)C)c2sccc2n1
In short: as §1

dasatinib = compound: Cc1nc(Nc2ncc(C(=O)Nc3c(C)cccc3Cl)s2)cc(N2CCN(CCO)CC2)n1 [dasatinib]
In short: as §1

[6] = compound: Cc1ncc(-c2ccnc(Nc3ccc(S(C)(=O)=O)cc3)n2)n1C(C)C
In short: as §1

[7] = compound: Cn1cc(-c2ccc3nnc(C(F)(F)c4ccc5ncccc5c4)n3n2)cn1
In short: as §1

tipifarnib = compound: Cn1cncc1[C@@](N)(c1ccc(Cl)cc1)c1ccc2c(c1)c(-c1cccc(Cl)c1)cc(=O)n2C [tipifarnib]
In short: as §1

mubritinib = compound: FC(F)(F)c1ccc(/C=C/c2nc(COc3ccc(CCCCn4ccnn4)cc3)co2)cc1 [mubritinib]
In short: as §1

tozasertib = compound: Cc1cc(Nc2cc(N3CCN(C)CC3)nc(Sc3ccc(NC(=O)C4CC4)cc3)n2)n[nH]1 [tozasertib]
In short: as §1

[8] = compound: C[C@H](C1=CC=C(C=C1)C(=O)NC2=C3C=CNC3=NC=C2)N
In short: as §1

[9] = compound: Cn1cc(-c2ccc3c(c2)CCN3C(=O)Cc2cccc(C(F)(F)F)c2)c2c(N)ncnc21
In short: as §1

duvelisib = compound: C[C@H](Nc1ncnc2nc[nH]c12)c1cc2cccc(Cl)c2c(=O)n1-c1ccccc1 [duvelisib]
In short: as §1

Measured: log2 fold change

COX7C (UniProt P15954)
inactive: [1] 0.025 | crizotinib 0.147 | [2] 0.028 | gandotinib 0.043 | [3] -0.114 | doramapimod -0.072 | ispinesib -0.096 | bafetinib -0.066 | [4] -0.077 | nilotinib 0.148 | [5] -0.041 | dasatinib 0.073 | [6] -0.158 | [7] 0.366 | tipifarnib 0.105 | mubritinib 0.112

CORO6 isoform 5 (UniProt Q6QEF8)
inactive: [1] 0.091 | crizotinib 0.021 | [2] 0.028 | tozasertib -0.165 | doramapimod -0.031

COPS8 (UniProt Q99627)
inactive: [1] -0.017 | crizotinib 0.07 | [2] 0.13 | [8] -0.148 | gandotinib 0.048 | [3] 0.054 | doramapimod 0.107 | ispinesib 0.05 | bafetinib -0.021 | [4] 0.025 | nilotinib 0.018 | [5] -0.008 | dasatinib 0.006 | [6] 0.007 | [9] 0.107 | [7] 0.146 | tipifarnib -0.017 | mubritinib 0.025

COPS3 isoform 2 (UniProt Q9UNS2)
inactive: [1] 0.054 | crizotinib 0.046 | [2] 0.116 | gandotinib -0.084 | doramapimod 0.028 | ispinesib -0.371 | bafetinib -0.19 | [4] -0.295 | nilotinib -0.041 | [5] 0.227 | [6] -0.194 | [7] 0.418 | tipifarnib 0.029 | mubritinib 0.138

CPSF7 isoform 3 (UniProt Q8N684)
inactive: [1] -0.016 | crizotinib 0.013 | [2] 0.026 | [8] -0.05 | gandotinib -0.004 | [3] 0.018 | doramapimod -0.014 | ispinesib 0.09 | bafetinib 0.07 | [4] -0.107 | nilotinib 0.028 | dasatinib 0.012 | [6] 0.044 | [9] 0.003 | [7] -0.027 | tipifarnib -0.048 | mubritinib -0.048
active: [5] -0.552

CRIP2 isoform 2 (UniProt P52943)
inactive: [1] -0.014 | crizotinib 0.011 | [2] -0.101 | [8] 0.058 | tozasertib -0.095 | doramapimod -0.255 | bafetinib 0.003 | nilotinib -0.051 | [5] 0.037 | [6] 0.047 | [9] -0.026 | tipifarnib -0.01

COX6B1 (UniProt P14854)
inactive: [1] -0.001 | crizotinib 0.184 | [2] 0.195 | [8] 0 | gandotinib -0.027 | [3] 0 | doramapimod -0.06 | ispinesib 0.226 | bafetinib -0.081 | [4] -0.023 | nilotinib -0.02 | [5] -0.01 | dasatinib 0.019 | [6] -0.027 | [9] 0.228 | tipifarnib -0.044 | mubritinib 0.054
active: [7] 0.377

COMP (UniProt P49747)
inactive: [1] -0.093 | crizotinib 0.137 | [8] 0.17 | duvelisib -0.042 | gandotinib -0.191 | tozasertib 0.041 | [3] -0.28 | doramapimod 0 | ispinesib 0.033 | bafetinib -0.092 | [4] 0.004 | dasatinib 0.039 | [9] 0.219 | [7] -0.081 | tipifarnib 0.075 | mubritinib -0.239

Source: the supplement of paper PMC10849652
